Source: patent US11642362B2, “Methods of inhibiting cell proliferation and METTL8 activity” (NATIONAL UNIVERSITY OF SINGAPORE, priority 2017, dated 2023)
At least one compound was matched to its structure with a doubt left.

Tested on: pS/TQ motif on Mettl8
Test: Flag IP and pS/TQ immunoblot of Flag-Mettl8 in HCT116 stable cells
Format: cell-based, human
Settings: HCT116 Flag-Mettl8 cells pretreated 1 hour with inhibitor (AZD7762 0.5 μM), then 10 Gy
From the text: Since both ATM and p53 are tumor suppressors in response to DNA damage, inventors further explored the function of Mettl8 in DNA damage. […] Equal amount of lysates were subject to Flag immunoprecipitation (“IP”) with M-2 beads and washed extensively before being resolved on SDS-PAGE and followed by immunoblotting with an phosphorylation-specific antibody against pS/TQ motif (Cell signaling) and a Flag antibodu. The lysates were immunoblotted by anti-Flag, Actin, ATM pS1981, Chk2 pT68 and p53 p515 antibodies.
In this experiment, equal amount of lysate was immunopurified with M2 beads and probed for pS/TQ antibody, the lysate was checked for antibodies indicated in FIG. 7C.
Equal amounts of lysate were immunopurified with M2 beads and probed for pS/TQ antibody, the lysate was checked for antibodies indicated.

COC[C@H]1OC(=O)c2coc3c2[C@@]1(C)C1=C(C3=O)[C@@H]2CCC(=O)[C@@]2(C)C[C@H]1OC(C)=O [Wortmannin]
irradiation-induced phosphorylation at the pS/TQ motif of Flag-Mettl8: reduced the phosphorylation
